pIC50: −log10 of the molar value. For at least one compound, name, drawing or mass did not settle the structure.
Tested on: lipid peroxide in rat brain homogenate
Assay: Antioxidative action on lipids in vitro (lipid peroxide activity in rat brain homogenate, thiobarbituric acid method)
Format: biochemical
Conditions: 500 μM cysteine, 5 μM ferrous sulfate, 100 mM KCl, 30 minutes at 37° C., malondialdehyde, read-out: 50% inhibitory concentration of anti-lipid peroxide action in vitro (IC50)
Method: The antioxidative action on lipids in vitro of the compounds according to the present invention was evaluated in accordance with the method of Malvy et al. (Malvy C. et al.,) described in Biochemical and Biophysical Research Communications, 1980, vol. 95, pp. 734 to 737,) by measuring the lipid peroxide activity in a rat brain homogenate. Namely, the rat brain was removed followed by the addition of five volumes of an aqueous solution of phosphate buffered saline (pH 7.4) (hereinafter, abbreviated as PBS) to the brain while cooling with water, homogenizing with a Teflon homogenizer, and centrifuging for 20 minutes at 10,000 g to collect the supernatant as a brain homogenate. 500 μM cysteine, 5 μM ferrous sulfate, and 100 mM KCl were added to the resulting brain homogenate followed by incubating for 30 minutes at 37° C. and measuring the malondialdehyde that formed due to decomposition of lipid peroxide using the thiobarbituric acid method. The 50% inhibitory concentrations (hereinafter, abbreviated as IC50) of the compounds according to the present invention were then determined from the measured values.

In the case of `Cc1c(C)c2c(c(C)c1N)CC(C)(C(=O)Nc1ccc(-n3ccnc3)cc1)O2` (racemic) [Compound 1, (±)-(5-amino-2,4,6,7-tetramethyldihydrobenzofuran-2-yl)-N-[4-(imidazol-1-yl)phenyl]carboxamide], the pIC50 was 5.48.

Reference: patent publication US20060189673A1, “Phenylazole compound, production process therefor and antioxidant” (Nippon Soda Co., Ltd., priority 2003, published 2006)
